In the supplement of paper PMC7752906:
Where a name gives a salt, the structure may show the parent alone. The list shows a part of the results. This data set is noisy: repeats of one test often differ as much as different tests do.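 Test system: Schistosoma mansoni schistosomula, roughly 40 per well, imaged in bright field over time and compared with wells given 0.1% DMSO. Distance read-out: the paper calls a drug a hit when its Mahalanobis distance is at least 2.47, three standard deviations above the DMSO control mean. Degeneracy is the share of worms classified opaque.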

system: Schistosoma mansoni schistosomula; experiment: Mahalanobis distance of static-rate-frequency phenotype descriptors from DMSO controls (dimensionless); higher = stronger phenotypic change versus DMSO; conditions: 10 µM; 72 h

| Compound | Mahalanobis distance |
| --- | --- |
| CN1C[C@H](CNC(=O)OCc2ccccc2)C[C@@H]2c3cccc4c3c(cn4C)C[C@H]21 [Metergoline] | inactive: 1.92 |
| Oc1ccc2c3c1O[C@H]1[C@@H](O)CC[C@@]4(O)[C@@H](C2)N(CC2CCC2)CC[C@]314 [Nalbuphine] | inactive: 1.88 |
| CC1C=CC=CCCC=CC=CC=CC=CC(OC2OC(C)C(O)C(N)C2O)CC2OC(O)(CC(O)C(O)CCC(O)CC(O)CC(O)CC(=O)OC(C)C(C)C1O)CC(O)C2C(=O)O (stereo not drawn) [Nystatin] | inactive: 1.51 |
| C[C@]12CC[C@H](O)CC1=CC[C@@H]1[C@@H]2CC[C@]2(C)C(=O)CC[C@@H]12 [Prasterone] | active: 2.85 |
| COc1cc2c(c(OC)c1OC)-c1ccc(OC)c(=O)cc1[C@@H](NC(C)=O)CC2 [colchicine] | active: 3.04 |
| CC[C@@H](CO)NC(=O)[C@@H]1C=C2c3cccc4c3c(cn4C)C[C@H]2N(C)C1 [Methysergide Maleate] | active: 3.48 |
| c1ccc2c(c1)OCC(C1=NCCN1)O2 (stereo not drawn) [Idazoxan Hydrochloride] | inactive: 1.97 |
| CCCCOC(=O)c1ccccc1C(=O)OCCCC [Dibutyl Phthalate] | inactive: 1.89 |
| O=C(O)c1nn(Cc2ccc(Cl)cc2Cl)c2ccccc12 [Lonidamine] | inactive: 1.62 |
| COc1ccc2c(c1OC)C(=O)O[C@@H]2[C@H]1c2cc3c(cc2CCN1C)OCO3 [Hydrastine (1r, 9s)] | inactive: 2.04 |
| Cc1nnc2n1-c1ccc(Cl)cc1C(c1ccccc1)=NC2 [Alprazolam] | inactive: 1.81 |
| NCC1(CC(=O)O)CCCCC1 [Gabapentin] | inactive: 1.44 |
| O=[N+]([O-])O[C@H]1CO[C@H]2[C@@H]1OC[C@H]2O[N+](=O)[O-] [Isosorbide Dinitrate] | inactive: 1.9 |
| CC(N)C(O)c1ccccc1 (stereo not drawn) [Phenylpropanolamine] | active: 3.58 |
| CCOC(=O)c1cncn1[C@H](C)c1ccccc1 [Etomidate] | active: 2.83 |
| O=[N+]([O-])C(Br)(CO)CO [Bronopol] | inactive: 1.99 |
| CN[C@@H](C)[C@@H](O)c1ccccc1 [Pseudoephedrine] | inactive: 2.38 |

Quoted from the listing.
In Mahalanobis distance, O=C(O)c1nn(Cc2ccc(Cl)cc2Cl)c2ccccc12 [Lonidamine] is listed with inactive: 1.62
In Mahalanobis distance, c1ccc2c(c1)OCC(C1=NCCN1)O2 (stereo not drawn) [Idazoxan Hydrochloride] is listed with inactive: 1.97

Next results

| Compound | Mahalanobis distance |
| --- | --- |
| CN1[C@@H]2C[C@@H](OC(=O)[C@H](CO)c3ccccc3)C[C@H]1[C@@H]1O[C@@H]12 [Scopolamine] | inactive: 1.66 |
| CN1C[C@H](C(=O)N[C@]2(C)O[C@@]3(O)[C@@H]4CCCN4C(=O)[C@H](Cc4ccccc4)N3C2=O)C=C2c3cccc4[nH]cc(c34)C[C@H]21 [Ergotamine] | active: 2.49 |
| O=C1CC[C@@]2(O)[C@H]3Cc4ccc(O)c5c4[C@@]2(CCN3CC2CC2)[C@H]1O5 [Naltrexone Hydrochloride] | inactive: 1.93 |
| O=C1Nc2ccc(Cl)cc2C(c2ccccc2Cl)=NC1O (stereo not drawn) [Lorazepam] | active: 3.51 |
| NCc1cccnc1 [Picolamine] | inactive: 1.87 |
| CC(N)Cc1ccc(O)cc1 (stereo not drawn) [Hydroxyamphetamine Hydrobromide] | active: 2.99 |
| O=c1c2ccccc2[se]n1-c1ccccc1 [Ebselen] | active: 2.78 |
| CC(=O)O[C@H]1C[C@@H]2CC[C@@H]3[C@H](CC[C@@]4(C)[C@H]3C[C@H]([N+]3(C)CCCCC3)[C@@H]4OC(C)=O)[C@@]2(C)C[C@@H]1[N+]1(C)CCCCC1 [Pancuronium Bromide] | inactive: 1.78 |
| O=c1n(Cl)c(=O)n(Cl)c(=O)n1Cl [Symclosene] | inactive: 1.82 |
| C=CCN1CC[C@]23c4c5ccc(O)c4O[C@H]2C(=O)CC[C@@]3(O)[C@H]1C5 [Naloxone] | inactive: 1.61 |
| C=CCN1CC[C@]23c4c5ccc(O)c4O[C@H]2C(=O)CC[C@@]3(O)[C@H]1C5 [Naloxone Hydrochloride] | inactive: 1.71 |
| Cc1cccc(C)c1NC(=O)CN1CCCC1=O [Nefiracetam] | inactive: 1.2 |
| CC[C@@H](C(=O)[C@@H](C)[C@@H](O)[C@H](C)[C@@H]1O[C@@H]([C@@H](CC)C(=O)O)CC[C@@H]1C)[C@H]1O[C@]2(C=C[C@@H](O)[C@]3(CC[C@@](C)([C@H]4CC[C@](O)(CC)[C@H](C)O4)O3)O2)[C@H](C)C[C@@H]1C [Salinomycin, Sodium] | active: 2.51 |
| CCC1(c2ccccc2)C(=O)NC(=O)NC1=O [Phenobarbital] | inactive: 1.38 |
| C[C@]12CCC(=O)C=C1C=C[C@@H]1[C@@H]2CC[C@@]2(C)[C@H]1CC[C@@]2(O)CCC(=O)O [Canrenoic Acid, Potassium Salt] | inactive: 1.5 |
| S=C=NCc1ccccc1 [Benzyl Isothiocyanate] | inactive: 1.91 |
